Data as given in PubChem BioAssay AID504791 (Drosophila RNAi Screening Center, 2011)
Aim: 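Genes whose knock-down strengthens or weakens small-RNA reporter silencing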 (primary screen). Cell system: Drosophila S2-derived reporter cells. Knock-down reagent: long dsRNA against Drosophila genes, about 150-250 ng dsRNA per well (siRNA assay); about 80-120 ng (miRNA assay). Timing: about 5 days (siRNA assay); about 4 days (miRNA assay). Challenge: copper sulfate induction of reporters: 25 µM (siRNA assay); 200 mM stated (miRNA assay), 1-2 days before reading. Measured: 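Per-well ratio of Renilla over firefly light, expressed relative to that plate's average ratio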. Call rule: 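First-pass picks had plate-scaled ratios over 1.5 for the siRNA assay, over 1.6 for the miRNA assay, or under 0.6; two distinct dsRNAs had to score alike on retest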.
In all, the deposit lists about 23,000 reagents; shown is a random part of those with a known target gene and a result. In the full data, 199 (0.86%) were called active. 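Plate-scaled ratios behind the calls are not deposited; printed light signals are raw; many rows marked increased or decreased are still called inactive.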 A number with no mark means an inactive call. Names joined by + are all predicted targets of the reagent. Reagent sequences are not shown. Not given: the direction of the score.

| gene | dsRNA | stable siRNA reporter change | miRNA reporter change | stable assay Renilla, run 1 (luminescence) | stable assay firefly, run 1 (luminescence) |
| --- | --- | --- | --- | --- | --- |
| CG32313 | DRSC21450 | – | – | 10015 | 4.77e5 |
| blanks | DRSC09757 | reporter ratio raised past the hit cutoff (active) | – | 13301 | 4.40e5 |
| CG4793 | DRSC01966 | – | – | 7118 | 3.24e5 |
| CG9331 | DRSC03206 | – | – | 26999 | 6.72e5 |
| CG14974 | DRSC08433 | – | – | 6818 | 3.68e5 |
| Cpr50Ca | DRSC05454 | – | – | 5666 | 3.69e5 |
| Cpr50Ca | DRSC06372 | – | – | 5779 | 3.30e5 |
| Cpr50Ca | DRSC06375 | – | – | 5426 | 3.40e5 |
| Chd64 | DRSC08649 | – | – | 7291 | 3.69e5 |
| CG13807 | DRSC08342 | – | – | 6458 | 3.03e5 |
| CG15357 | DRSC00387 | – | – | 7150 | 4.32e5 |
| Ald1 | DRSC14109 | – | – | 5878 | 3.22e5 |
| CG17959 | DRSC18142 | – | – | 6283 | 4.16e5 |
| CHES-1-like | DRSC18447 | – | – | 6259 | 3.07e5 |
| Gr33a | DRSC02589 | – | – | 6327 | 2.79e5 |
| Vajk4 | DRSC06589 | – | reporter ratio raised past the hit cutoff | 14819 | 4.56e5 |
| Vajk4 | DRSC07003 | – | – | 7380 | 3.69e5 |
| ProtB | DRSC03373 | – | – | 8792 | 5.48e5 |
| CG5861 | DRSC02907 | – | – | 9481 | 4.89e5 |
| CG32454 | DRSC11652 | – | – | 8879 | 2.97e5 |
| Unc-115a | DRSC12749 | – | – | 6455 | 4.14e5 |
| CG14456 | DRSC11713 | – | – | 7383 | 5.09e5 |
| CG4820 | DRSC15654 | – | – | 6270 | 3.81e5 |
| Kap3 | DRSC19426 | – | – | 7086 | 4.29e5 |
| CG9702 | DRSC16540 | – | – | 6160 | 4.23e5 |
| Wdfy2 | DRSC02822 | – | – | 16442 | 9.09e5 |
| Aprt | DRSC08139 | – | – | 5842 | 4.58e5 |
| bcd + CR14578 | DRSC20984 | – | – | 5387 | 4.87e5 |
| PolQ | DRSC17006 | – | reporter ratio lowered past the hit cutoff | 5535 | 4.21e5 |
| ced-6 | DRSC07591 | – | – | 4367 | 5.15e5 |
| mv | DRSC08208 | – | – | 5519 | 4.12e5 |
| mv | DRSC08570 | – | – | 5204 | 3.93e5 |
| CG5151 | DRSC10487 | reporter ratio raised past the hit cutoff | – | 5588 | 1.79e5 |
| CG5151 | DRSC23220 | – | – | 5232 | 2.82e5 |
| Lpt | DRSC04291 | – | – | 5606 | 4.60e5 |
| Lpt | DRSC04515 | – | – | 35850 | 9.58e5 |
| TP53INP | DRSC08178 | – | – | 5291 | 4.25e5 |
| TP53INP | DRSC22552 | – | – | 5903 | 5.93e5 |
| Prosap | DRSC06382 | – | – | 5771 | 3.13e5 |
| Prosap | DRSC07081 | – | – | 8510 | 4.34e5 |
| t-cup | DRSC01254 | – | – | 5722 | 4.66e5 |
| Dbct | DRSC19951 | – | – | 8586 | 4.61e5 |
| hd | DRSC12316 | – | – | 5543 | 3.23e5 |
| CG14502 | DRSC06473 | – | – | 8974 | 3.37e5 |
| AkhR | DRSC03329 | – | – | 11787 | 5.98e5 |
| CG3199 | DRSC15467 | – | – | 6835 | 5.68e5 |
| Prosalpha4T2 | DRSC04643 | – | – | 5715 | 2.65e5 |
| PolE2 | DRSC09737 | – | – | 6895 | 5.20e5 |
| CG14834 | DRSC10204 | – | – | 6107 | 4.39e5 |
| Scr | DRSC12604 | reporter ratio raised past the hit cutoff | – | 4991 | 1.86e5 |
| Scr | DRSC23141 | – | reporter ratio raised past the hit cutoff | 5330 | 2.70e5 |
| Ndfip | DRSC11201 | – | – | 9569 | 3.66e5 |
| Rap1 | DRSC08686 | – | – | 10326 | 3.63e5 |
| Rpp25 | DRSC05002 | – | – | 7004 | 4.52e5 |
| esg | DRSC03530 | – | – | 7182 | 4.21e5 |
| CG30430 | DRSC22260 | – | – | 10476 | 8.79e5 |
| alpha-Est8 | DRSC12620 | – | – | 7248 | 3.42e5 |
| Cep135 | DRSC09345 | – | – | 6494 | 3.90e5 |
| Cep135 | DRSC10244 | – | – | 7772 | 3.06e5 |
| CG31823 | DRSC01887 | – | – | 7415 | 3.65e5 |
| CG2767 | DRSC15451 | – | – | 9168 | 4.65e5 |
| Ubc4 | DRSC11312 | – | – | 9389 | 5.15e5 |
| snoRNA:Me28S-C3227a + snoRNA:Me18S-A1061 + snoRNA:Me28S-C3227b + 7 more | DRSC05497 | – | – | 6162 | 4.81e5 |
| CG15210 | DRSC19656 | – | – | 6491 | 5.22e5 |
| Trf4 | DRSC00729 | – | – | 8350 | 4.22e5 |
| CG10165 | DRSC02017 | – | – | 1.56e5 | 1.46e6 |
| Vps13D | DRSC09818 | – | – | 5372 | 4.70e5 |
| Vps13D | DRSC09819 | – | – | 5371 | 4.06e5 |
| Drip | DRSC07405 | – | – | 6392 | 3.26e5 |
| CD98hc | DRSC15453 | – | – | 7767 | 3.39e5 |
| CG15554 | DRSC15092 | – | – | 6083 | 3.51e5 |
| jbug | DRSC03952 | – | – | 5722 | 2.70e5 |
| jbug | DRSC04114 | – | – | 6631 | 2.84e5 |
| jbug | DRSC04167 | – | – | 5639 | 3.40e5 |
| jbug | DRSC04388 | – | – | 6906 | 5.14e5 |
| Ing5 | DRSC03188 | – | – | 7007 | 1.43e6 |
| Dhit | DRSC07411 | – | – | 8978 | 3.33e5 |
| DnaJ-H | DRSC03273 | – | – | 7691 | 3.85e5 |
| mdu | DRSC19860 | – | – | 4007 | 4.09e5 |
| mdu | DRSC23192 | – | – | 2703 | 2.47e5 |
| mdu | DRSC28604 | – | reporter ratio lowered past the hit cutoff | – | – |
| ppk30 | DRSC15302 | – | – | 6826 | 3.97e5 |
| CG3061 | DRSC15460 | – | – | 7643 | 3.63e5 |
